From article doi:10.1101/2024.03.27.587014

Amino acid sequences for entries named in this document (tags omitted).
UniProt P51818: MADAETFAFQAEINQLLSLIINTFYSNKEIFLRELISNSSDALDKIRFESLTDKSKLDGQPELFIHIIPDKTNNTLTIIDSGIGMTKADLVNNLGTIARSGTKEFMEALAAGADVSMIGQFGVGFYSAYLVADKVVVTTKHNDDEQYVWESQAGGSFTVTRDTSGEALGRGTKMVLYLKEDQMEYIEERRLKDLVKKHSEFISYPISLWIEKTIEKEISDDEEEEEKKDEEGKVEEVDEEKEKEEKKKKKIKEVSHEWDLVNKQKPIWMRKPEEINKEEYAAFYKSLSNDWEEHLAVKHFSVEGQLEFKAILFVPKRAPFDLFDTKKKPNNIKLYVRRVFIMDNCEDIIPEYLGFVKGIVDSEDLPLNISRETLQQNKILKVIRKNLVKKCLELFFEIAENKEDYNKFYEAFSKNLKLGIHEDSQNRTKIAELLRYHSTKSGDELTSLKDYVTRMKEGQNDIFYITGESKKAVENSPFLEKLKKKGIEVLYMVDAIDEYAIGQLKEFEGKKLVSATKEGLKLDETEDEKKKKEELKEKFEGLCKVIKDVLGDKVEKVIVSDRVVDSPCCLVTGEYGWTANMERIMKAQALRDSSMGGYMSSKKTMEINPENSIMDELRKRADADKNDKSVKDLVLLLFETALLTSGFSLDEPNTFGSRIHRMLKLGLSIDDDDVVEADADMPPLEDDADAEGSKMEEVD

Legend:
[1] = target: YFP-AtRPAP3mut2 (Arabidopsis) (UniProt Q5XF05); assay: co-IP
[2] = target: YFP-AtRPAP3mut6 (Arabidopsis) (UniProt Q5XF05); assay: co-IP
[3] = target: AtRPAP3mut2 (yeast two-hybrid fusion) (Arabidopsis) (UniProt Q5XF05); assay: two-hybrid
[4] = target: AtRPAP3mut6 (yeast two-hybrid fusion) (Arabidopsis) (UniProt Q5XF05); assay: two-hybrid

binding [1] | binding [2] | binding [3] | binding [4] | Substance
binds | no binding |  |  | myc-AtHSP90.3 (from UniProt P51818 1-699)
 |  | binds | no binding | AtHSP90.3 (yeast two-hybrid fusion) (from UniProt P51818 1-699)

Results are given in words; binding and its absence hold for the method and conditions named. For some of these results: Binding can be weak; no strength is given. For some of these results: In cells and extracts the contact can be indirect.
